Test results taken from patent US9433687B2 (Pfizer Inc., priority 2012, dated 2016).

B1: ch75: rat-human chimeric anti-Notch3 antibody 75, rat variable regions fused with human IgG1 and human kappa (antibody, V domains shown)
VH: QVKLLQSGAALVKPGASVKMSCKASGYAFTDYWVTWVKQSHGKSLEWIGEISPNSGGTNFNEKFKGKATLTVDKSTSTAYMELSRLTSEDSAIYYCTRGEIRYNWFAYWGQGTLVTVSS
VL: NIVMTQSPKSMSISVGDRVTMNCKASQNVGNNIAWYQQKPGQSPKLLIYYASNRYTGVPDRFTGGGYGTDFTLTINSMQAEDAAFYYCQRLYNSPFTFGSGTKLEIK
B2: ch28: rat-human chimeric anti-Notch3 antibody 28, rat variable regions fused with human IgG1 and human kappa (antibody, V domains shown)
VH: EVQLVESGGGLVQPGRSLTLSCVASGFTFRDYGMTWIRQAPGKGLTWVAYISSGSNYIYYAEAVKGRFTISRDNAKNTLYLQMTSLRSEDTALYFCTRRGPFVLDAWGQGASVTVSS
VL: DIQMTQSPSFLSASVGDRVTINCKASQSINRYLHWFQQKLGEAPKLLIYNANGLQTGIPSRFSGSGSGTDFTLTISSLQSEDVATYFCLQHNTWPDTFGAGTKLELK

Columns and labels:
[1] = general procedure: solution-phase peptide synthesis; HATU
[2] = tested on: Notch 1-3 NRR domain swap chimeras; assay: Notch 1-3 NRR domain swap chimera ELISA (epitope mapping); assay type: binding, human; details: antibody at 5 ug/ml; FIG. 6
[3] = late stage modification step, HPLC Protocol A

Row | Molecule | step yield ([1]; late stage modification step) [%] | final HPLC purity [1, 3] [%] | step yield ([1]; coupling step) [%] | epitope binding profile to domains of the Notch3 NRR [2] | other results
1 | 2-methylalanyl-N-[(3R,4S,5S)-3-methoxy-1-{(2S)-2-[(1R,2R)-1-methoxy-2-methyl-3-oxo-3-{[(1S)-2-phenyl-1-(1,3-thiazol-2-yl)ethyl]amino}propyl]pyrrolidin-1-yl}-5-methyl-1-oxoheptan-4-yl]-N-methyl-L-valinamide | 75 | >97 |  |  | 
2 | N-[(9H-fluoren-9-ylmethoxy)carbonyl]-2-methylalanyl-N-[(3R,4S,5S)-3-methoxy-1-{(2S)-2-[(1R,2R)-1-methoxy-2-methyl-3-oxo-3-{[(1S)-2-phenyl-1-(1,3-thiazol-2-yl)ethyl]amino}propyl]pyrrolidin-1-yl}-5-methyl-1-oxoheptan-4-yl]-N-methyl-L-valinamide |  |  | 74 |  | final HPLC purity ([1]; coupling step, HPLC Protocol A): >97%
3 | 2-methylalanyl-N-[(3R,4S,5S)-1-{(2S)-2-[(1R,2R)-3-{[(1S,2R)-1-hydroxy-1-phenylpropan-2-yl]amino}-1-methoxy-2-methyl-3-oxopropyl]pyrrolidin-1-yl}-3-methoxy-5-methyl-1-oxoheptan-4-yl]-N-methyl-L-valinamide | 51 | >90 |  |  | 
4 | N-[(9H-fluoren-9-ylmethoxy)carbonyl]-2-methylalanyl-N-[(3R,4S,5S)-1-{(2S)-2-[(1R,2R)-3-{[(1S,2R)-1-hydroxy-1-phenylpropan-2-yl]amino}-1-methoxy-2-methyl-3-oxopropyl]pyrrolidin-1-yl}-3-methoxy-5-methyl-1-oxoheptan-4-yl]-N-methyl-L-valinamide |  |  | 95 |  | final HPLC purity ([1]; coupling step, HPLC Protocol B): >94%
5 | B1 |  |  |  | more dependent on the LNR-A and both the HD-1 and HD-2 domains | 
6 | B2 |  |  |  | more dependent on the LNR-C and HD-1 domains | 
